Source: patent US12410152B2, “Oxazole and thioazole-type cullin ring ubiquitin ligase compounds and uses thereof” (Proxygen GmbH, priority 2019, dated 2025)
The source gives many values for each of these; only a part stands here.

System: KBM7 WT cells (global proteome)
Test: Quantitative expression proteomics (TMT isobaric tagging), drug vs DMSO
Assay type: cell-based, human
Source text: The mechanism by which the assayed molecules re-program a functional CRL4B complex based on the data shown could be that drug binding to CUL4B recruits a neo-substrate directly to the cullin backbone. Alternatively, drug binding could stabilize CUL4B function to boost time intervals where a functionally competent CUL4B complexes can be formed. Here, the word “functional” implies that the CUL4B backbone of this complex needs to be neddylated, and a CUL4B associated E2 ubiquitin-conjugating enzyme (UBE2G1) needs to be bound. FIG. 9 outlines one possible mechanism. Both predicted mechanisms of action would result in a functionally altered CRL4B complex, and thus an altered stability of drug-induced (neo-) substrates. In order to identify target proteins with a decreased abundance or, in other words, target proteins that become degraded by CRL4B after drug treatment, global proteome composition was measured using quantitative expression proteomics (TMT-labeling). In brief, KBM7 cells were drug treated for 12 hours, lysed, and subjected to isobaric tagging. Ensuing proteomics analysis quantified a total of 7,903 proteins at a minimum spectral count of 2. […] Data on essentiality are taken from Hart et al., G3, August 2017 (PMID: 28655737).
50×10^6 KBM7^WT cells per condition were collected, washed four times with ice-cold PBS, the supernatant aspirated and pellets snap-frozen in liquid N2. Each washed cell pellet was lysed separately in 40 μL of freshly prepared lysis buffer as previously described (see Mayor-Ruiz et al., Mol Cell 2019)
Offline Fractionation via RP-HPLC at high pH and 2D-RP/RP Liquid Chromatography Mass Spectrometry were performed as previously described (see Mayor-Ruiz et al., Mol Cell 2019).
Acquired raw data files were processed using the Proteome Discoverer 2.2.0 platform, utilizing the Sequest HT database search engine and Percolator validation software node (V3.04) to remove false positives with a false discovery rate (FDR) of 1% on peptide and protein level under strict conditions. Searches were performed with full tryptic digestion against the human SwissProt database v2017.06 with up to two allowed miscleavage sites. Oxidation (+15.9949 Da) of methionine was set as variable modification, whilst carbamidomethylation (+57.0214 Da) of cysteine residues and TMT 6-plex labelling of peptide N-termini and lysine residues were set as fixed modifications. Data was searched with mass tolerances of ±10 ppm and ±0.02 Da on the precursor and fragment ions, respectively. Results were filtered to include peptide spectrum matches (PSMs) with Sequest HT cross-correlation factor (Xcorr) scores of […] and high peptide confidence assigned by Percolator. MS^2 signal-to-noise values (S/N) values of TMT reporter ions were used to estimate peptide/protein abundance changes. PSMs with precursor isolation interference values of ≥ 50% and average TMT-reporter ion S/N≤10 were excluded from quantitation. Only unique peptides were used for TMT quantitation as well as for TOP3 label-free quantitation. Isotopic impurity correction and TMT channel-normalization based on total peptide amount were applied. For statistical analysis and p-value calculation, the integrated ANOVA hypothesis test was used. TMT ratios with p-values below 0.01 were considered as significant. Only proteins with >1 peptide detected and >1 unique peptide detected were considered for further analysis. For the calling of destabilized proteins, a log 2 fold change threshold (drug/DMSO) of −0.3 was applied.
Comparison of overall proteome-wide changes in KBM7 cells treated with IC020772.1 (2.5 μM), IC021313.2 (7 μM) or T6938051 (3.5 μM) for 5 h and 12h, using quantitative proteomics based on isobaric tagging.
The protein names in Table 4, Table 5 and Table 6 refer to the protein names as provided by HUGO Gene Nomenclature Committee (HGNC) database. […]

## O=C(CSc1nnc2c(n1)[nH]c1ccccc12)Nc1ccc(Cl)cn1 [IC020772.1]
OCLN (Q16625-1)
  log2FC (IC020772.1/DMSO): −0.4403
OFD1 (O75665-1)
  log2FC (IC020772.1/DMSO): −0.3659
PARD6B (Q9BYG5-1)
  log2FC (IC020772.1/DMSO): −0.415
PCNX3 (Q9H6A9-1)
  log2FC (IC020772.1/DMSO): −0.4759
PDK2 (Q15119-1)
  log2FC (IC020772.1/DMSO): −0.3789
PHF8 (Q9UPP1-1)
  log2FC (IC020772.1/DMSO): −0.3771
PIAS1 (O75925-2)
  log2FC (IC020772.1/DMSO): −0.3733
PLS1 (Q14651)
  log2FC (IC020772.1/DMSO): −0.4403
POC5 (Q8NA72-1)
  log2FC (IC020772.1/DMSO): −0.3346
POLR3G (O15318)
  log2FC (IC020772.1/DMSO): −0.4131
POLR21 (P36954)
  log2FC (IC020772.1/DMSO): −0.3733
PPFIA1 (Q13136-1)
  log2FC (IC020772.1/DMSO): −0.3346
PPP1R10 (Q96QC0)
  log2FC (IC020772.1/DMSO): −0.3419
PSPH (P78330)
  log2FC (IC020772.1/DMSO): −0.482
PTPN22 (Q9Y2R2-1)
  log2FC (IC020772.1/DMSO): −0.3219
PVR (P15151-1)
  log2FC (IC020772.1/DMSO): −0.4055
PYROXD1 (Q8WU10-1)
  log2FC (IC020772.1/DMSO): −0.3201
QRICH1 (Q2TAL8)
  log2FC (IC020772.1/DMSO): −0.3752
QSOX1 (O00391-1)
  log2FC (IC020772.1/DMSO): −0.3752
RAB3A (P20336)
  log2FC (IC020772.1/DMSO): −0.4074
RABGGTB (P53611)
  log2FC (IC020772.1/DMSO): −0.3346
RAD51 (Q06609-1)
  log2FC (IC020772.1/DMSO): −0.8211
RAD54B (Q9Y620-1)
  log2FC (IC020772.1/DMSO): −0.6758
RBM23 (Q86U06-1)
  log2FC (IC020772.1/DMSO): −0.9269
RBX1 (P62877)
  log2FC (IC020772.1/DMSO): −0.3201
REEP5 (Q00765-1)
  log2FC (IC020772.1/DMSO): −0.3771
RFWD3 (Q6PCD5)
  log2FC (IC020772.1/DMSO): −0.6758
RFXANK (O14593-1)
  log2FC (IC020772.1/DMSO): −0.3437
RGS18 (Q9NS28)
  log2FC (IC020772.1/DMSO): −0.3346
RIOK1 (Q9BRS2)
  log2FC (IC020772.1/DMSO): −0.4131
RNF135 (Q8IUD6-1)
  log2FC (IC020772.1/DMSO): −0.4501
RNF141 (Q8WVD5-1)
  log2FC (IC020772.1/DMSO): −0.3696
RNF181 (Q9P0P0)
  log2FC (IC020772.1/DMSO): −0.9269
ROBO1 (Q9Y6N7-2)
  log2FC (IC020772.1/DMSO): −0.4035
RPF1 (Q9H9Y2)
  log2FC (IC020772.1/DMSO): −0.4501
RRM2 (P31350-2)
  log2FC (IC020772.1/DMSO): −0.7984
RWDD1 (Q9H446-1)
  log2FC (IC020772.1/DMSO): −0.3364
S1PR4 (O95977)
  log2FC (IC020772.1/DMSO): −0.3771
SATB2 (Q9UPW6-1)
  log2FC (IC020772.1/DMSO): −0.4481
SATBI (Q01826-2)
  log2FC (IC020772.1/DMSO): −0.4461
SC5D (O75845)
  log2FC (IC020772.1/DMSO): −0.3401
SDF2 (Q99470)
  log2FC (IC020772.1/DMSO): −0.3733
SETDB2 (Q96T68-1)
  log2FC (IC020772.1/DMSO): −0.4383
SETX (Q7Z333-4)
  log2FC (IC020772.1/DMSO): −0.3201
SGF29 (Q96ES7)
  log2FC (IC020772.1/DMSO): −0.4016
SH3BP5 (O60239-1)
  log2FC (IC020772.1/DMSO): −0.3789
SIGLEC6 (O43699-1)
  log2FC (IC020772.1/DMSO): −0.685
SIGLEC12 (Q96PQ1-1)
  log2FC (IC020772.1/DMSO): −0.8059
SIX3 (O95343)
  log2FC (IC020772.1/DMSO): −0.4501
SLAIN1 (Q8ND83-1)
  log2FC (IC020772.1/DMSO): −0.6804
SLC4A7 (Q9Y6M7-7)
  log2FC (IC020772.1/DMSO): −0.3978
SLC7A2 (P52569-3)
  log2FC (IC020772.1/DMSO): −0.8009
SLC7A6 (Q92536)
  log2FC (IC020772.1/DMSO): −0.3437
SLC20A2 (Q08357)
  log2FC (IC020772.1/DMSO): −0.3733
SLC29A1 (Q99808-2)
  log2FC (IC020772.1/DMSO): −0.8288
SLC29A2 (Q14542-1)
  log2FC (IC020772.1/DMSO): −0.482
SLC38A2 (Q96QD8-1)
  log2FC (IC020772.1/DMSO): −0.6943
SLC38A5 (Q8WUX1-1)
  log2FC (IC020772.1/DMSO): −0.4074
SLC39A10 (Q9ULF5-1)
  log2FC (IC020772.1/DMSO): −0.4364
SLC39A14 (Q15043-1)
  log2FC (IC020772.1/DMSO): −0.6943
SLC43A1 (O75387-2)
  log2FC (IC020772.1/DMSO): −0.3201
SMG9 (Q9H0W8-1)
  log2FC (IC020772.1/DMSO): −0.4055
SNAPC1 (Q16533)
  log2FC (IC020772.1/DMSO): −0.3401
SNX10 (Q9Y5X0-1)
  log2FC (IC020772.1/DMSO): −0.4383
SP2 (Q02086-1)
  log2FC (IC020772.1/DMSO): −0.4093
SPINT2 (O43291-1)
  log2FC (IC020772.1/DMSO): −0.3419
SUFU (Q9UMX1-1)
  log2FC (IC020772.1/DMSO): −0.8625
SUGPI (Q8IWZ8-1)
  log2FC (IC020772.1/DMSO): −0.3715
SUMO2 (P61956-1)
  log2FC (IC020772.1/DMSO): −0.3997
SURF6 (O75683)
  log2FC (IC020772.1/DMSO): −0.8391
TADA2A (O75478-1)
  log2FC (IC020772.1/DMSO): −0.3364
TAF8 (Q7Z7C8-2)
  log2FC (IC020772.1/DMSO): −0.4442
TCEANC2 (Q96MN5-1)
  log2FC (IC020772.1/DMSO): −0.3364
TFDP1 (Q14186-1)
  log2FC (IC020772.1/DMSO): −0.3789
TIPIN (Q9BVW5)
  log2FC (IC020772.1/DMSO): −0.4403
TK1 (P04183)
  log2FC (IC020772.1/DMSO): −0.4403
TMEM59 (Q9BXS4)
  log2FC (IC020772.1/DMSO): −0.4403
TMEM131L (A2VDJ0-5)
  log2FC (IC020772.1/DMSO): −0.8262
TNFAIP8L2 (Q6P589)
  log2FC (IC020772.1/DMSO): −0.8262
TNFRSF8 (P28908-1)
  log2FC (IC020772.1/DMSO): −0.9324
TOX (O94900)
  log2FC (IC020772.1/DMSO): −0.8836
TRIM11 (Q96F44-1)
  log2FC (IC020772.1/DMSO): −0.4501
TSR3 (Q9UJK0)
  log2FC (IC020772.1/DMSO): −0.4759
TTC28 (Q96AY4)
  log2FC (IC020772.1/DMSO): −0.3771
TTF2 (Q9UNY4-1)
  log2FC (IC020772.1/DMSO): −0.4131
TYMS (P04818-1)
  log2FC (IC020772.1/DMSO): −0.3997
UBE2B (P63146)
  log2FC (IC020772.1/DMSO): −0.4521
UCK1 (Q9HA47-4)
  log2FC (IC020772.1/DMSO): −0.3437
UHRF1 (Q96T88-2)
  log2FC (IC020772.1/DMSO): −0.8599
USP11 (P51784)
  log2FC (IC020772.1/DMSO): −0.3383
USP37 (Q86T82-1)
  log2FC (IC020772.1/DMSO): −0.8443
UTP14A (Q9BVJ6-1)
  log2FC (IC020772.1/DMSO): −0.3752
